Several values for one entry are separate records, joined by “and”; a condition that tells them apart may be missing. Identical values can stand only once. About 6,100 (1.1%) of roughly 580,000 compounds were called active. Inconclusive results, whose numbers are uncertain, are shown with a selection of clear calls. The call rests on the fitted dose curve; in most records, active means well fitted inhibition curve with a large enough effect; inconclusive means small, poorly fitted or top-dose-only effect, or another doubt; inactive means no such curve, though single readings can be large or run the other way. Potencies of inconclusive entries are doubtful fits and often do not repeat.
Biological target: Polyunsaturated fatty acid lipoxygenase ALOX12 (Homo sapiens) (UniProt P18054)
Experiment: Primary qHTS assay for inhibitors of human arachidonate 12S-lipoxygenase (ALOX12): Round 2
Settings: purified 12hLO, xylenol orange hydroperoxide absorbance; activity change, negative = inhibition: at 108 µM (top of the series) unless noted
Outline: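 Purified human 12hLO at 150 nM in 25 mM Hepes, 0.01% Triton X-100, pH 7.0, preincubated 15 min at room temperature with compound. Reaction started with 40 uM arachidonic acid, 30 min at room temperature. Hydroperoxide measured by Fe-xylenol orange, 573/405 nm absorbance ratio.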
On the % scale 0 is the no-effect control and ±100 the full control effect; potency means the concentration at half of the fitted maximal effect.

Protein sequences, listed by entry. Tags and fused reporters are not part of them. Lines headed by an entry give the natural chain unless they say otherwise; changes in a name come on top.
UniProt P18054: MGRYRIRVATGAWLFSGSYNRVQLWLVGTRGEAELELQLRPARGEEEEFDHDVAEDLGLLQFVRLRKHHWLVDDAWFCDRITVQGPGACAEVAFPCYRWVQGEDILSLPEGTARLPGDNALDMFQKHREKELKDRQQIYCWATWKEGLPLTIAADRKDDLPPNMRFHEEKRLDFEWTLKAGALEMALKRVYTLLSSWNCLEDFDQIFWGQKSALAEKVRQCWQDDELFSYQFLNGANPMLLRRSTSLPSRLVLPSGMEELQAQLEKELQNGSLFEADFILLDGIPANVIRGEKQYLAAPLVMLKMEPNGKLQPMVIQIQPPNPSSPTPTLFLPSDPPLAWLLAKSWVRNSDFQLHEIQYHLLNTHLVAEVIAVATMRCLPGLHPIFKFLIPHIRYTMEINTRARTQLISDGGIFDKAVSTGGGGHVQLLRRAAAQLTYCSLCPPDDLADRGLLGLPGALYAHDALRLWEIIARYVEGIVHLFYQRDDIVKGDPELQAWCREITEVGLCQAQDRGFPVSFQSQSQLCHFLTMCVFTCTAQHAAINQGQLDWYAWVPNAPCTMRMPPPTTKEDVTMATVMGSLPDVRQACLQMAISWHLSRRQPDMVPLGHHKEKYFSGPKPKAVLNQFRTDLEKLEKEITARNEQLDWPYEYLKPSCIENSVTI

Compound	Potency	activity change, negative = inhibition
CCCNS(=O)(=O)c1ccc(CCC(=O)Nc2cc(Cl)ccc2Oc2ccccc2)cc1	inactive	–
CCOC(=O)c1ccc(Nc2cc(C)nc(C)c2C(=O)OCC)cc1	inconclusive: 44.7 µM [inhibitor, partial curve, poor fit]	–
O=C1CCN(C(=O)c2cccs2)CCCC(CO)CCN1 (stereo not given)	inactive	–
Cc1ccc(S(=O)(=O)N2CCN(C3CCN(CCC(C)C)C3=O)CC2)cc1Cl (stereo not given)	inconclusive: 3.55 µM [inhibitor, full curve, poor fit]	–
CC1(C)CC(=O)C(C2C3=C(CC(C)(C)CC3=O)Oc3ccccc32)=C(O)C1 (stereo not given)	inconclusive: 3.16 µM [inhibitor, partial curve, poor fit]	–
O=C(Cc1ccccc1)N1CC(=O)N2[C@@H](CO)[C@@H](c3ccc(Br)cc3)[C@@H]2C1	inconclusive: 50.1 µM [inhibitor, single point]	–
CCc1nncn1C1CCN(S(=O)(=O)c2cc(C)ccc2C)CC1	inactive	–
C=CCc1cc(/C=C2\NC(=O)NC2=O)cc(OCC)c1O	inconclusive: 35.5 µM [inhibitor, partial curve, poor fit]	–
O=C(Cc1ccccc1)N1CCC2(CCCN(C3CCOCC3)C2=O)C1 (stereo not given)	inactive	–
Cc1ccc(C(=O)Nc2ccc(Nc3ccccc3)cc2)cc1C	inactive	–
CCc1cc2cc3c(cc2nc1SCC(=O)Nc1nccs1)OCO3	inconclusive: 50.1 µM [inhibitor, partial curve, poor fit]	–
O=C(CSc1nc(-c2ccco2)cc(C(F)(F)F)n1)N1CCc2ccccc2C1	inconclusive: 35.5 µM [inhibitor, partial curve, poor fit]	–
COc1cc(/C=C/C(=O)c2c(O)c3ccccc3oc2=O)cc(OC)c1OC	inconclusive: 3.16 µM [inhibitor, full curve, poor fit]	–
C[C@H]1CN=C(Nc2ccccc2)N1CCc1ccccc1	inconclusive: 31.6 µM [inhibitor, partial curve, poor fit]	–
COc1ccc(/C=N/NC(=S)SC)cc1OC	inconclusive: 50.1 µM [inhibitor, partial curve, poor fit]	–
O=c1[nH]c(C2CCCN(Cc3cccc(-c4ccc(F)cc4F)c3)C2)nc2ccc(F)cc12 (stereo not given)	inconclusive: 56.2 µM [inhibitor, partial curve, poor fit] and inconclusive: 25.1 µM [inhibitor, partial curve]	–
COc1ccccc1-c1cc2c(Nc3cc(OC)c(OC)c(OC)c3)nccc2[nH]1	inconclusive: 44.7 µM [inhibitor, partial curve, poor fit]	–
COc1ccc(NC(=O)CSc2cn(CC(=O)N3CCOCC3)c3ccccc23)cc1OC	inconclusive: 31.6 µM [inhibitor, single point]	–
CCN(C(=O)CSc1nncs1)c1c(N)n(Cc2ccccc2)c(=O)[nH]c1=O	inactive	–
COc1cccc(N2CCN(C(=O)c3ccc4c(=O)n(CCc5ccccc5)c(=O)[nH]c4c3)CC2)c1	inactive	–

Compound	Potency	activity change, negative = inhibition
CCOc1ccc(CCN2C(=S)N([C@@H](Cc3ccc(O)cc3)CN3CCCC3CN3C(=S)NC[C@@H]3Cc3ccc(O)cc3)C[C@@H]2CC(C)C)cc1 (stereo not given in full)	inconclusive: 79.4 µM [inhibitor, partial curve, poor fit]	–
CCNc1c(NS(=O)(=O)c2ccc(C)c(C)c2)c(=O)oc2ccccc12	inconclusive: 112 µM [inhibitor, single point]	–
Cc1cc(C)c2c(CC(=O)Nc3c(C)cccc3C)coc2c1	inactive	–
Cc1ccc(Cl)cc1-n1nc(-c2c(C)nc3scc(CC(=O)N4CCOCC4)n3c2=O)cc1C	inconclusive: 11.2 µM [inhibitor, full curve, poor fit]	–
CC(C)COC(=O)/C(C#N)=C\c1ccc(-c2ccccc2Cl)o1	inconclusive: 112 µM [inhibitor, partial curve, poor fit]	–
CCOc1ccc(OCC)c(NC(=O)CN2CCN(c3cccc(C)c3)C(C)C2)c1 (stereo not given)	inconclusive: 0.631 µM [inhibitor, full curve, poor fit]	–
COc1ccccc1CNS(=O)(=O)c1cc(C(=O)Nc2cccc(C(F)(F)F)c2)ccc1F	inactive	–
O=C(COC(=O)Cc1ccccc1F)Nc1ccc(Cl)cn1	inactive	–
O=C1C(Nc2ccccc2)=CC(c2ccc3c(c2)OCO3)N1c1ccccc1 (stereo not given)	inconclusive: 39.8 µM [inhibitor, partial curve, poor fit]	–
CCN(CC)CCN1C(=O)/C(=C\c2ccc(Cl)c([N+](=O)[O-])c2)SC1=Nc1ccc(OC)cc1	inconclusive: 112 µM [inhibitor, partial curve, poor fit]	–
CC1(C)C2CCC1(C)C(Nc1ccccc1)C2 (stereo not given)	inconclusive: 112 µM [inhibitor, single point]	–
Cc1ccc(S(=O)(=O)CCC(=O)OC(C)C(=O)NC2CCCCC2C)cc1 (stereo not given)	–	inconclusive: -30.3% [inhibitor]
Cc1ccc(NCCCn2ccc(NC(=O)OCc3ccccc3)nc2=O)cc1C	inactive	–
COc1ccc(-c2cc(C(=O)NCc3cc(OC)c(OC)c(OC)c3)[nH]n2)cc1	inconclusive: 126 µM [inhibitor, partial curve, poor fit]	–
CN1CC(=O)N(c2ccc(Cl)cc2)Cc2c(NCCCc3ccccc3)ncnc21	inconclusive: 10 µM [inhibitor, full curve]	–
O=[S+]1([O-])NC2(CCCN(Cc3ccc(C(F)(F)F)cc3)C2)CNc2ccccc21 (stereo not given)	inconclusive: 25.1 µM [inhibitor, full curve]	–
CC(C)C(=O)Nc1ccc(NC(=O)c2ccc3c(c2)OCO3)cc1	inactive	–
Cc1[nH]n(-c2ccccc2)c(=O)c1C(=O)c1ccc(Cl)cc1	inconclusive: 112 µM [inhibitor, single point]	–
O=c1[nH]c2ccc(Cl)cc2c(-c2ccccc2)c1CN1CCCCC1	inconclusive: 22.4 µM [inhibitor, partial curve, poor fit]	–
CN(C)C=Nc1c(I)cc(I)c(CCC(=O)O)c1I	inconclusive: 12.6 µM [inhibitor, partial curve, poor fit]	–

From PubChem BioAssay AID1671190 (National Center for Advancing Translational Sciences (NCATS), 2021)
